Data published in the supplement of paper PMC6411743.
± gives the standard deviation of the averaged measurements. This is one part of the list.

Chains of the proteins cited; added tags and fusions are not shown. Lines headed by an entry give the natural chain unless they say otherwise; changes in a name come on top.
UniProt O14523: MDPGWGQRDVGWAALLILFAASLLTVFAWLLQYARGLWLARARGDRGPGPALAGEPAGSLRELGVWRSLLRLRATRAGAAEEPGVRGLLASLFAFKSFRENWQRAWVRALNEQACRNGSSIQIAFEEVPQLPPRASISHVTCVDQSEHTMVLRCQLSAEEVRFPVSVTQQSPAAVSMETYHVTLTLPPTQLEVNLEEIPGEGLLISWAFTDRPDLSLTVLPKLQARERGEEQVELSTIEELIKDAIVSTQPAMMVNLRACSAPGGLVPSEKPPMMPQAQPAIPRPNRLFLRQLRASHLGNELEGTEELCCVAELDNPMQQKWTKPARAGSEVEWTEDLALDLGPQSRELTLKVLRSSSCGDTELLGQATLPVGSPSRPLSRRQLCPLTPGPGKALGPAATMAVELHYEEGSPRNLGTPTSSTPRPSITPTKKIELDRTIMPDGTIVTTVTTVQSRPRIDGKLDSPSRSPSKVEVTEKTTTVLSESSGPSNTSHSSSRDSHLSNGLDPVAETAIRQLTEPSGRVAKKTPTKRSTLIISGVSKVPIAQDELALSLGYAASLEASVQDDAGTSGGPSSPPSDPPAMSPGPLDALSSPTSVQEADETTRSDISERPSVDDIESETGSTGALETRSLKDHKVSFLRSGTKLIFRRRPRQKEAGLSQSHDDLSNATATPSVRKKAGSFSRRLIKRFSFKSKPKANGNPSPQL
UniProt O60664: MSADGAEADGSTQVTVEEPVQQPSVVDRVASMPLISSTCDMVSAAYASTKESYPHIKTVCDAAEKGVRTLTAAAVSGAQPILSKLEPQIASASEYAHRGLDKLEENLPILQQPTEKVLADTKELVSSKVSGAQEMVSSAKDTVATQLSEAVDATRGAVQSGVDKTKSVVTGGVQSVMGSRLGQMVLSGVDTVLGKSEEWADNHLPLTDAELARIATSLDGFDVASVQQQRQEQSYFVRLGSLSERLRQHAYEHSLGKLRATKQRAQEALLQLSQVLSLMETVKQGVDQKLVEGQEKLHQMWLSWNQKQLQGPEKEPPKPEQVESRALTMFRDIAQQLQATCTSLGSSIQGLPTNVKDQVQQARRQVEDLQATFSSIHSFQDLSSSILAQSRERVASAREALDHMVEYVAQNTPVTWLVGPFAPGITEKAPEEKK
UniProt O15525: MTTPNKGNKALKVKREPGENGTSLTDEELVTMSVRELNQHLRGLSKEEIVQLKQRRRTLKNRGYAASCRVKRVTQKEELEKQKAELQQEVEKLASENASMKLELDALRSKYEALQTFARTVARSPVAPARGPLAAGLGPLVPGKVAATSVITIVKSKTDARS
UniProt O00165, whole entry: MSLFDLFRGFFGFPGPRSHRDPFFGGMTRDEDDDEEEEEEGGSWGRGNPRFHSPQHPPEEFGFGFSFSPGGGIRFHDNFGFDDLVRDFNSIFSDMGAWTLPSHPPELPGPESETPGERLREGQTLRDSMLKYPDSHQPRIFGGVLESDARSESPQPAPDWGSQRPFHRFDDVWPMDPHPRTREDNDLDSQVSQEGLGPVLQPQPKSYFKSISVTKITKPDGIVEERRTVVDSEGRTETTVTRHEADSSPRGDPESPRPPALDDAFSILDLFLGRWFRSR
UniProt O00629, whole entry: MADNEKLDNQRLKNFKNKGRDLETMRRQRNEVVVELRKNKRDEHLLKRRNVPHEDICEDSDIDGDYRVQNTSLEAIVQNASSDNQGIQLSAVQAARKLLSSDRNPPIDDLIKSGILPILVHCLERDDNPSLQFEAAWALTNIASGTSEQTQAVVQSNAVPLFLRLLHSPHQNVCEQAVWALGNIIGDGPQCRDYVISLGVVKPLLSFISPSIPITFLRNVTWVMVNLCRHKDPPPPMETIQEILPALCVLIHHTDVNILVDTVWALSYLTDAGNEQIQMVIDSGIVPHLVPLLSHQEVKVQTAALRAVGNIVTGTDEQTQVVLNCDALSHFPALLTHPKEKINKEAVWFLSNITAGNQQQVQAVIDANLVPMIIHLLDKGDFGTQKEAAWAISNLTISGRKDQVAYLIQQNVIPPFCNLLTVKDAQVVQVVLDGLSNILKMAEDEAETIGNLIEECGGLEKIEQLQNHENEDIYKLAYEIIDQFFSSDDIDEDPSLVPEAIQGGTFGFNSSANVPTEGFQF
UniProt O43290: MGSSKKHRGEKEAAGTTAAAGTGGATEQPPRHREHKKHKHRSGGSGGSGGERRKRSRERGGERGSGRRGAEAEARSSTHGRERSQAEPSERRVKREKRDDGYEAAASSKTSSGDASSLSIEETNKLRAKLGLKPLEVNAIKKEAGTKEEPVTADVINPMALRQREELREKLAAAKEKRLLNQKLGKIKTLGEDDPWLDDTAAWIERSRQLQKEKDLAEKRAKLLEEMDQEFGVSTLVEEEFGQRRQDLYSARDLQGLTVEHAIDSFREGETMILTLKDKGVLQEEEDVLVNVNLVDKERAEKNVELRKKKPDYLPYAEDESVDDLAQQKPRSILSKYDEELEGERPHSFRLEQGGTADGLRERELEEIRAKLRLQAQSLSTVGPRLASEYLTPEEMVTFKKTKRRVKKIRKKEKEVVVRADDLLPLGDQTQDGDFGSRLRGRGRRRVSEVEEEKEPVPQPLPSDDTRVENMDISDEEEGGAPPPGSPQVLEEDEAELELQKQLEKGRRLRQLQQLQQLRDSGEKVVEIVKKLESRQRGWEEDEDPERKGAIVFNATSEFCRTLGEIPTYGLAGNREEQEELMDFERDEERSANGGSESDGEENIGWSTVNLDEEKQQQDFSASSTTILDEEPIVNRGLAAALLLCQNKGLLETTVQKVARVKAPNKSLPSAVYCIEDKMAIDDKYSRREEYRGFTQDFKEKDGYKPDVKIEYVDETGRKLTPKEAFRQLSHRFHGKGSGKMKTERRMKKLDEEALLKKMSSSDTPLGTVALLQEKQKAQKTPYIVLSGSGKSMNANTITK
UniProt O15067: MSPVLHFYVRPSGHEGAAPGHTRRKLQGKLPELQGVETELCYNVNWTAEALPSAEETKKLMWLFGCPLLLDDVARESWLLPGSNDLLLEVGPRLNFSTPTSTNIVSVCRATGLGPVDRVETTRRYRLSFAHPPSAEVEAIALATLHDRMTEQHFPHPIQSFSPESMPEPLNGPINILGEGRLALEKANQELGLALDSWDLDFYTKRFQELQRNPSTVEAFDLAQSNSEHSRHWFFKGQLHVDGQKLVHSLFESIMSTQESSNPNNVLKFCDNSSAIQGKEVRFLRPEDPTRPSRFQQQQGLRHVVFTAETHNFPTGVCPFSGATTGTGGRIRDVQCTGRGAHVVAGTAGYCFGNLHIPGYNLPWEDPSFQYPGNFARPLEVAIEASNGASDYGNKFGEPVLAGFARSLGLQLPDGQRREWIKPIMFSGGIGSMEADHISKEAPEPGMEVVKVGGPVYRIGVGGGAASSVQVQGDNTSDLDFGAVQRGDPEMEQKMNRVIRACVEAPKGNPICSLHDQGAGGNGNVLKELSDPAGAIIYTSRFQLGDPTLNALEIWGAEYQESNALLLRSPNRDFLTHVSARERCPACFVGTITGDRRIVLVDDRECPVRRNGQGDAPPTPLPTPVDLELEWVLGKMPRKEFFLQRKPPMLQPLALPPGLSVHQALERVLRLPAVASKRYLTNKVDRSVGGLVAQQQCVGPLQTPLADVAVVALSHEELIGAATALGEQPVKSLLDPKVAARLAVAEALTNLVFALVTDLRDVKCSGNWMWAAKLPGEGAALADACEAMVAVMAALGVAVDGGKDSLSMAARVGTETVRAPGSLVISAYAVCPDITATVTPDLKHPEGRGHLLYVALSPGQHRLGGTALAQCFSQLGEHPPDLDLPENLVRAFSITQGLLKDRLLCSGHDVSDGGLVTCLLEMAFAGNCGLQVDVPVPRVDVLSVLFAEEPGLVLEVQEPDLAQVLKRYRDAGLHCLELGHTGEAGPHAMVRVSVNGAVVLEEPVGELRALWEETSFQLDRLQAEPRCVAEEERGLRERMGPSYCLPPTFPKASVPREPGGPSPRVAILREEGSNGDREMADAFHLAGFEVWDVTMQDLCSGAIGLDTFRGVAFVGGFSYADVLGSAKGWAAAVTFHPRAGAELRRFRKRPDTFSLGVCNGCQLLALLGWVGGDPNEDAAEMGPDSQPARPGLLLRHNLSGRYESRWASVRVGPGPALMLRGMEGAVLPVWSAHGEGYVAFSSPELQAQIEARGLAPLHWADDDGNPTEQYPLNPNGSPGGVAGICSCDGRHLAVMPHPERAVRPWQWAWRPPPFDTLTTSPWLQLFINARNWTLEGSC
UniProt O14497, whole entry: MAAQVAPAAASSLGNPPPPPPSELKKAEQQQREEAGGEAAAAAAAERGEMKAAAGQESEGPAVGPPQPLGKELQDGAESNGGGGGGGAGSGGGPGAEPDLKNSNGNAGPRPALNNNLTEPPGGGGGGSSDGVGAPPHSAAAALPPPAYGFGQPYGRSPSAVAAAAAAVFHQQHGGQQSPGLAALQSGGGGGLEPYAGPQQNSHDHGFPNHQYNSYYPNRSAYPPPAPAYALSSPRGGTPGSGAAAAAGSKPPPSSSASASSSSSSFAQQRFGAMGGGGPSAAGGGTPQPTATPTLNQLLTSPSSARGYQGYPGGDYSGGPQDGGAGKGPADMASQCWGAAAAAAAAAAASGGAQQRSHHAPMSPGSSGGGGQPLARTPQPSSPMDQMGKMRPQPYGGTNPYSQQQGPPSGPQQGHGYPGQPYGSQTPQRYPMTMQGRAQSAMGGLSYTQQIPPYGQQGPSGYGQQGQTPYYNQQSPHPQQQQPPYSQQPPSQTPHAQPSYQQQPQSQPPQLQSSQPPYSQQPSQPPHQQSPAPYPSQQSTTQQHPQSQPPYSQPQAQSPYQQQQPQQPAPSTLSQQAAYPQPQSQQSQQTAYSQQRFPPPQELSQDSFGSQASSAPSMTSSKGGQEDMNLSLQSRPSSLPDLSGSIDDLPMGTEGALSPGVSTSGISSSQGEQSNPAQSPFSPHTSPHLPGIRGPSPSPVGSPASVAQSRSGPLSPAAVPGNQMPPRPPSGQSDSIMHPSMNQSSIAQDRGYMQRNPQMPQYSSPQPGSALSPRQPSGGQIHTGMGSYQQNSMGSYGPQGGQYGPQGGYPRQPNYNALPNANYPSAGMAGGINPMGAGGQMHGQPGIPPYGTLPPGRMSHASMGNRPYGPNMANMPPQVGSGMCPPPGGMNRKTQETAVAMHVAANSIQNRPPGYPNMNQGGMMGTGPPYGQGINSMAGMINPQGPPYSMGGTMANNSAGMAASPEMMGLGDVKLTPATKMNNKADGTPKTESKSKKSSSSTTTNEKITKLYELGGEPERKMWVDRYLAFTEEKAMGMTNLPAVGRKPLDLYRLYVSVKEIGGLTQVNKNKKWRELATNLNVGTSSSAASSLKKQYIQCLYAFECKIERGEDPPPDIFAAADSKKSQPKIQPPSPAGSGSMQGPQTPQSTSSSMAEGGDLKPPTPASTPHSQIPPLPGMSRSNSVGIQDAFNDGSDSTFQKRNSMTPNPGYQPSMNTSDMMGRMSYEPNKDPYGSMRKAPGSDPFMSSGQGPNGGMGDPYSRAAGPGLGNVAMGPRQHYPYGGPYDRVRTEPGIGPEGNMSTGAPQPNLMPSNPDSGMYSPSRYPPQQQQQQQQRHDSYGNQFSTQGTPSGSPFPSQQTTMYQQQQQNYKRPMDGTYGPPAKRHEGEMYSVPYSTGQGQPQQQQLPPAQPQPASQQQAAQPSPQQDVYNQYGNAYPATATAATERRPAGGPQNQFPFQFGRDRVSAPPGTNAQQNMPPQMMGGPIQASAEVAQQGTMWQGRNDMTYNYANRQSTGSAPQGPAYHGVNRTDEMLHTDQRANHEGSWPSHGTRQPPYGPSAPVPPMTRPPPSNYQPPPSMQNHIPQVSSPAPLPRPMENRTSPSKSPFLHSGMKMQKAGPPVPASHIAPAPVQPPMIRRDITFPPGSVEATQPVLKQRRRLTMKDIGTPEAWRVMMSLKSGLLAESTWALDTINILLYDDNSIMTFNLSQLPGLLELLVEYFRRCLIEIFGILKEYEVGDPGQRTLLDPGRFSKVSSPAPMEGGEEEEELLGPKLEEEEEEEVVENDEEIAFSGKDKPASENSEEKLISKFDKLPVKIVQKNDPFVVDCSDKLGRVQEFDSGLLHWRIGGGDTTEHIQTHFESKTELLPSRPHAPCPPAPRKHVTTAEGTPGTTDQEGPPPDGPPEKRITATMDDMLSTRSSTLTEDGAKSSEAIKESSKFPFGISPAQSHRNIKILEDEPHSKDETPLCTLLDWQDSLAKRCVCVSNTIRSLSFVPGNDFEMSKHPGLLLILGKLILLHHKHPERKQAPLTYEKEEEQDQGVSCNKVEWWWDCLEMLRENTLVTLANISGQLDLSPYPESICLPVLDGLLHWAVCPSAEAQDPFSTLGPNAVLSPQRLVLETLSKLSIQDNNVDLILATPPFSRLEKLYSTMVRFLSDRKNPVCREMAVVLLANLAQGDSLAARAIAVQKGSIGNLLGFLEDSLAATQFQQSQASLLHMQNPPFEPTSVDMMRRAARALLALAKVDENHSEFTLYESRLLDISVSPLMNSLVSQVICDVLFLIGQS

Compound: Nc1nc2c(ncn2[C@@H]2O[C@H](COP(=O)(O)OP(=O)(O)OP(=O)(O)O)[C@@H](O)[C@H]2O)c(=O)[nH]1 [guanosine triphosphate]
Assay: NP40-soluble protein abundance relative to vehicle (solubility fold change) (ratio); higher = more soluble protein in presence of GTP
Procedure, shortened: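 Jurkat crude lysate (Dounce-homogenised) was treated with eight concentrations from 0.1 to 10 mM for 10 min at room temperature, then 3 min at 37 °C. It was solubilised with 0.8% NP40 and benzonase (60 min, 4 °C) and ultracentrifuged, and the supernatant was TMT-labelled for LC-MS/MS. Intensities were vsn-normalised, and the value is the fold change against the NP40-processed vehicle per replicate, from three independent experiments.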

Row | Target | NP40-soluble protein abundance (concentration: 0.1mM) | NP40-soluble protein abundance (concentration: 0.5mM) | NP40-soluble protein abundance (concentration: 1mM) | NP40-soluble protein abundance (concentration: 2mM) | NP40-soluble protein abundance (concentration: 4mM) | NP40-soluble protein abundance (concentration: 6mM) | NP40-soluble protein abundance (concentration: 8mM) | NP40-soluble protein abundance (concentration: 10mM)
1 | PIK3R2 (UniProt O00459) | 1.11 ± 0.17 | 1.11 ± 0.22 | 1.11 ± 0.21 | 0.982 ± 0.16 | 0.937 ± 0.19 | 0.997 ± 0.2 | 0.989 ± 0.15 | 0.967 ± 0.08
2 | UniProt O43829 | 0.98 ± 0.19 | 0.981 ± 0.074 | 1.02 ± 0.17 | 0.986 ± 0.091 | 0.945 ± 0.19 | 0.949 ± 0.067 | 1.13 ± 0.12 | 1.08 ± 0.067
3 | PRMT3 (UniProt O60678) | 1.08 ± 0.087 | 1.05 ± 0.098 | 0.989 ± 0.059 | 1.02 ± 0.12 | 1.07 ± 0.097 | 0.986 ± 0.088 | 0.952 ± 0.023 | 0.945 ± 0.057
4 | UniProt O00267 and related entries | 1.02 ± 0.035 | 1.04 ± 0.054 | 0.974 ± 0.023 | 0.991 ± 0.04 | 0.969 ± 0.036 | 0.967 ± 0.058 | 0.945 ± 0.035 | 0.941 ± 0.019
5 | UniProt O14686 and related entries | 0.996 ± 0.037 | 1.02 ± 0.062 | 1.06 ± 0.024 | 1.04 ± 0.065 | 1.06 ± 0.064 | 1.07 ± 0.043 | 1.14 ± 0.078 | 1.1 ± 0.087
6 | CBX4 (UniProt O00257) | 1.08 ± 0.044 | 1.08 ± 0.095 | 1.12 ± 0.046 | 1.13 ± 0.065 | 1.11 ± 0.086 | 1.28 ± 0.11 | 1.26 ± 0.13 | 1.38 ± 0.14
7 | UniProt O14523 and related entries | 0.963 ± 0.087 | 1.03 ± 0.081 | 1.02 ± 0.054 | 0.999 ± 0.051 | 1.07 ± 0.049 | 0.97 ± 0.047 | 1.03 ± 0.085 | 1.02 ± 0.053
8 | UniProt O60664 | 0.884 ± 0.051 | 0.851 ± 0.065 | 0.892 ± 0.079 | 0.848 ± 0.11 | 0.828 ± 0.1 | 0.851 ± 0.11 | 0.835 ± 0.12 | 0.874 ± 0.087
9 | PDCD5 (UniProt O14737) | 0.97 ± 0.062 | 1.01 ± 0.063 | 1.1 ± 0.11 | 1.05 ± 0.099 | 1.08 ± 0.16 | 1.09 ± 0.098 | 1.23 ± 0.12 | 1.27 ± 0.18
10 | MAFG (UniProt O15525) | 0.92 ± 0.12 | 0.905 ± 0.035 | 1.04 ± 0.11 | 1 ± 0.15 | 1.05 ± 0.1 | 0.988 ± 0.053 | 0.973 ± 0.065 | 1.11 ± 0.096
11 | PPM1G (UniProt O15355) | 0.918 ± 0.088 | 0.911 ± 0.094 | 0.959 ± 0.097 | 0.888 ± 0.12 | 0.898 ± 0.12 | 0.894 ± 0.12 | 0.927 ± 0.089 | 0.923 ± 0.1
12 | STRN (UniProt O43815) | 1 ± 0.014 | 1.05 ± 0.009 | 1.08 ± 0.065 | 1.12 ± 0.016 | 1.15 ± 0.062 | 1.14 ± 0.1 | 1.18 ± 0.09 | 1.17 ± 0.12
13 | UniProt O00165-5 | 1.06 ± 0.055 | 1.12 ± 0.04 | 1.14 ± 0.088 | 1.17 ± 0.055 | 1.18 ± 0.098 | 1.16 ± 0.08 | 1.2 ± 0.14 | 1.17 ± 0.12
14 | KPNA4 (UniProt O00629) | 0.989 ± 0.054 | 1.05 ± 0.054 | 1.06 ± 0.048 | 1.02 ± 0.067 | 1.03 ± 0.046 | 1.05 ± 0.095 | 1.07 ± 0.038 | 1.05 ± 0.063
15 | SCD (UniProt O00767) | 0.982 ± 0.032 | 1.02 ± 0.018 | 0.929 ± 0.036 | 0.916 ± 0.068 | 0.867 ± 0.018 | 0.865 ± 0.028 | 0.856 ± 0.018 | 0.82 ± 0.053
16 | PRPF3 (UniProt O43395) | 1.06 ± 0.052 | 1.09 ± 0.081 | 1.09 ± 0.09 | 1.12 ± 0.09 | 1.15 ± 0.12 | 1.19 ± 0.12 | 1.22 ± 0.16 | 1.27 ± 0.18
17 | UniProt O60313 and related entries | 1.02 ± 0.023 | 1.02 ± 0.017 | 0.963 ± 0.03 | 0.964 ± 0.016 | 0.947 ± 0.022 | 0.936 ± 0.021 | 0.92 ± 0.048 | 0.895 ± 0.054
18 | XPO1 (UniProt O14980) | 1.01 ± 0.027 | 1.02 ± 0.033 | 0.936 ± 0.022 | 0.926 ± 0.072 | 0.916 ± 0.054 | 0.918 ± 0.033 | 0.882 ± 0.023 | 0.848 ± 0.044
19 | DCTN6 (UniProt O00399) | 1.04 ± 0.068 | 1.1 ± 0.068 | 1.12 ± 0.14 | 1.11 ± 0.084 | 1.11 ± 0.11 | 1.1 ± 0.14 | 1.16 ± 0.18 | 1.07 ± 0.17
20 | UniProt O43504 | 0.878 ± 0.085 | 0.902 ± 0.07 | 1 ± 0.12 | 0.969 ± 0.057 | 1.02 ± 0.16 | 0.906 ± 0.12 | 0.933 ± 0.046 | 0.991 ± 0.12
21 | CLIC1 (UniProt O00299) | 0.871 ± 0.12 | 0.885 ± 0.096 | 0.867 ± 0.12 | 0.846 ± 0.1 | 0.847 ± 0.12 | 0.82 ± 0.096 | 0.794 ± 0.12 | 0.832 ± 0.12
22 | SART1 (UniProt O43290) | 0.976 ± 0.045 | 1.05 ± 0.053 | 1.13 ± 0.07 | 1.17 ± 0.11 | 1.28 ± 0.16 | 1.37 ± 0.17 | 1.46 ± 0.27 | 1.54 ± 0.32
23 | UniProt O00264 and related entries | 0.869 ± 0.17 | 0.823 ± 0.1 | 1.01 ± 0.1 | 0.986 ± 0.072 | 0.949 ± 0.091 | 0.943 ± 0.068 | 0.857 ± 0.19 | 1.02 ± 0.1
24 | PPIH (UniProt O43447) | 0.955 ± 0.012 | 0.993 ± 0.024 | 0.938 ± 0.014 | 0.943 ± 0.023 | 0.941 ± 0.012 | 0.933 ± 0.04 | 0.926 ± 0.011 | 0.959 ± 0.038
25 | NUDT21 (UniProt O43809) | 1.11 ± 0.12 | 1.39 ± 0.12 | 1.64 ± 0.21 | 1.86 ± 0.31 | 2.02 ± 0.39 | 2.04 ± 0.35 | 1.97 ± 0.25 | 2.07 ± 0.44
26 | PFAS (UniProt O15067) | 1.03 ± 0.022 | 1.01 ± 0.031 | 0.984 ± 0.022 | 0.946 ± 0.026 | 0.943 ± 0.027 | 0.922 ± 0.026 | 0.927 ± 0.012 | 0.891 ± 0.041
27 | PMM2 (UniProt O15305) | 0.977 ± 0.022 | 0.962 ± 0.021 | 0.933 ± 0.06 | 0.896 ± 0.049 | 0.883 ± 0.074 | 0.869 ± 0.058 | 0.875 ± 0.07 | 0.85 ± 0.066
28 | MPHOSPH10 (UniProt O00566) | 0.911 ± 0.042 | 0.908 ± 0.089 | 0.988 ± 0.033 | 0.958 ± 0.054 | 0.983 ± 0.038 | 1 ± 0.055 | 0.987 ± 0.086 | 1.04 ± 0.048
29 | UniProt O43736 and related entries | 0.915 ± 0.062 | 1.01 ± 0.044 | 0.939 ± 0.05 | 0.892 ± 0.033 | 0.96 ± 0.052 | 0.937 ± 0.079 | 0.971 ± 0.08 | 0.982 ± 0.096
30 | ARID1A (UniProt O14497) | 0.993 ± 0.031 | 1.06 ± 0.016 | 1.08 ± 0.055 | 1.08 ± 0.084 | 1.1 ± 0.1 | 1.12 ± 0.12 | 1.16 ± 0.17 | 1.13 ± 0.17

Reprinted from the listing for reference:
Row | Target | NP40-soluble protein abundance (concentration: 0.1mM) | NP40-soluble protein abundance (concentration: 0.5mM) | NP40-soluble protein abundance (concentration: 1mM) | NP40-soluble protein abundance (concentration: 2mM) | NP40-soluble protein abundance (concentration: 4mM) | NP40-soluble protein abundance (concentration: 6mM) | NP40-soluble protein abundance (concentration: 8mM) | NP40-soluble protein abundance (concentration: 10mM)
19 | DCTN6 (UniProt O00399) | 1.04 ± 0.068 | 1.1 ± 0.068 | 1.12 ± 0.14 | 1.11 ± 0.084 | 1.11 ± 0.11 | 1.1 ± 0.14 | 1.16 ± 0.18 | 1.07 ± 0.17
20 | UniProt O43504 | 0.878 ± 0.085 | 0.902 ± 0.07 | 1 ± 0.12 | 0.969 ± 0.057 | 1.02 ± 0.16 | 0.906 ± 0.12 | 0.933 ± 0.046 | 0.991 ± 0.12
